Experimental data published in patent US20210301261A1, “HUMAN LIVER MICROPHYSIOLOGY PLATFORM AND SELF ASSEMBLY LIVER ACINUS MODEL AND METHODS OF THEIR USE” (priority 2014, published 2021).

System: hepatocyte sentinel cells
Assay: Statistical validation of biosensors in hepatocyte sentinel cells in microplates
Type: cell-based, human
Description: A panel of biosensors was delivered through lentiviral transduction in multiple fluorescent protein colors initially validated in microplates for an acute response. An SSMD level of ≥2 is considered a statistically valid response.

CC1=CC(=O)c2ccccc2C1=O [Menadione]
>2: SSMD, Mitochondrial Calcium Uptake biosensor (50 μM, at 4.5 hr) | SSMD, Reactive Oxygen Species in Mito. biosensor (100 μM, at 2.5 hr) | SSMD, Cytochrome C Release: Apoptosis biosensor (100 μM, at 5 hr)
